# From article PMC9830214
# By UniProt entry, the sequences of proteins in these tests, tags left out.
# UniProt P53618: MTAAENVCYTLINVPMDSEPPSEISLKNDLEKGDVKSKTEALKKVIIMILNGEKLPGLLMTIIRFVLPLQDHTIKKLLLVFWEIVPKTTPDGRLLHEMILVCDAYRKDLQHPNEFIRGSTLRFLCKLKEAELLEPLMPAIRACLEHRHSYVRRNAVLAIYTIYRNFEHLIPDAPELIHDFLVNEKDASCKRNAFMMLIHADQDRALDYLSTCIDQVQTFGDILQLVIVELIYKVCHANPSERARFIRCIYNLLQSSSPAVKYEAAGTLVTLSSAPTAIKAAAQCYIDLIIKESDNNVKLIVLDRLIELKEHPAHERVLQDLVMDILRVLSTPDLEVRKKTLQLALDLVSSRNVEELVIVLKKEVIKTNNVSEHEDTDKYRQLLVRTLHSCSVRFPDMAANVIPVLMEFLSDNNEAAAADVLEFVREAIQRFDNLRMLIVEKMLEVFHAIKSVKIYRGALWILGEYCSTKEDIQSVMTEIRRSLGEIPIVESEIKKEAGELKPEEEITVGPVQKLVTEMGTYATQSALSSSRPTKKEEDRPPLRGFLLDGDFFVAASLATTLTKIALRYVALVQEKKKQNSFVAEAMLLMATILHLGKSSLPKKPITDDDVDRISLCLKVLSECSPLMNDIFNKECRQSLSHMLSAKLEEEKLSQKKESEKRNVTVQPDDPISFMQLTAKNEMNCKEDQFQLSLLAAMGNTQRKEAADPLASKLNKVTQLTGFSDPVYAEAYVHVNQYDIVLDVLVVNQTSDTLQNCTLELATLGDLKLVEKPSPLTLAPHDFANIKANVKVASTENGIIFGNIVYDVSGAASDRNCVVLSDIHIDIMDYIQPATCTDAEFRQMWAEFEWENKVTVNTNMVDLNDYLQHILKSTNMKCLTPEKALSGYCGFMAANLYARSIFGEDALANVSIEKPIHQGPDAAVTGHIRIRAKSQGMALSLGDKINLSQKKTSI
# These are yes or no findings as the source states them, for the method shown. In cells and extracts the contact can be indirect. Some results given as binding are weak or reduced against the parent protein; the word gives no strength. Tags and fused reporters may be left off the sequences shown.
# Biological target: T1, HA-TMEM63B-QL (mouse) (UniProt Q3TWI9)
# T1 sequence: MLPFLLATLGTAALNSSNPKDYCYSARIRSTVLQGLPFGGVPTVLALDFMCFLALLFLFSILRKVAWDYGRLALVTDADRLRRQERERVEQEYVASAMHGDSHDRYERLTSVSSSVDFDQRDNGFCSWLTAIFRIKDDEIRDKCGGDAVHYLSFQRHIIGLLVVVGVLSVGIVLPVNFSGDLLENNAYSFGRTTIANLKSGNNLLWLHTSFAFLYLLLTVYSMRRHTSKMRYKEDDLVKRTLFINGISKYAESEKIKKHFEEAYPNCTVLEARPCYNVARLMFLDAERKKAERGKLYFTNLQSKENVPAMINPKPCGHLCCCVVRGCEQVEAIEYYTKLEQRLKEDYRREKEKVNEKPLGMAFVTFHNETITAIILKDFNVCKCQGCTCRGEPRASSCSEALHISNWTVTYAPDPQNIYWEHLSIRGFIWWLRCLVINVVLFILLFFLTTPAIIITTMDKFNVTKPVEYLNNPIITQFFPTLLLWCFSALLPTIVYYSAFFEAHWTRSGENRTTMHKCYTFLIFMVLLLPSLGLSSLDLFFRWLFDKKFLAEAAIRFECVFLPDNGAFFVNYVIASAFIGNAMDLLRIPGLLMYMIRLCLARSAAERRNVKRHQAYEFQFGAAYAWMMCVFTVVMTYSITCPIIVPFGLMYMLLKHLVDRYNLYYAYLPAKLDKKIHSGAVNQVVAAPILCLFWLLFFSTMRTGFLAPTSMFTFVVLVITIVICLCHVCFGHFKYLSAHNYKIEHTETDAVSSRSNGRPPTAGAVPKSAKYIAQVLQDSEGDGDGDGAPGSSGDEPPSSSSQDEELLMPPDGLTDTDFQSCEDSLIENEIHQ
# Test: co-IP; HEK293T lysate (RIPA buffer) of cells transfected with HA-TMEM63B; anti-HA antibody at 4 °C overnight, Protein G agarose beads, eluted with 0.1 M glycine pH 2.5; blot for endogenous β-COP
substance,measurement,value
β-COP subunit of COPI complex (from UniProt P53618 1-953),binding,binds
